A: 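Primary screen of methionyl-tRNA synthetase; the read-out is not stated. Target: Methionyl-tRNA synthetase (putative), Leishmania donovani (UniProt E9BF75). The test concentration is not given. The values are filed as inhibition. Of about 68,000 compounds tested this way, about 24 (0.035%) reached 50% or more in at least one test.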
B: 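Assay on Mycobacterium tuberculosis, filed only as a heat shock assay from Cornell; the read-out is not stated. The concentration is filed as 10 mM, unlikely as a test dose, so the dose is not known. The record gives no direction; compounds that gave an IC50 in retests scored well above the rest, so higher reads as stronger inhibition. Size under these conditions: about 69,000 compounds, about 930 of them at 50% or above in at least one test.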

Chains of the proteins cited; added tags and fusions are not shown.
UniProt E9BF75, entry or part of it: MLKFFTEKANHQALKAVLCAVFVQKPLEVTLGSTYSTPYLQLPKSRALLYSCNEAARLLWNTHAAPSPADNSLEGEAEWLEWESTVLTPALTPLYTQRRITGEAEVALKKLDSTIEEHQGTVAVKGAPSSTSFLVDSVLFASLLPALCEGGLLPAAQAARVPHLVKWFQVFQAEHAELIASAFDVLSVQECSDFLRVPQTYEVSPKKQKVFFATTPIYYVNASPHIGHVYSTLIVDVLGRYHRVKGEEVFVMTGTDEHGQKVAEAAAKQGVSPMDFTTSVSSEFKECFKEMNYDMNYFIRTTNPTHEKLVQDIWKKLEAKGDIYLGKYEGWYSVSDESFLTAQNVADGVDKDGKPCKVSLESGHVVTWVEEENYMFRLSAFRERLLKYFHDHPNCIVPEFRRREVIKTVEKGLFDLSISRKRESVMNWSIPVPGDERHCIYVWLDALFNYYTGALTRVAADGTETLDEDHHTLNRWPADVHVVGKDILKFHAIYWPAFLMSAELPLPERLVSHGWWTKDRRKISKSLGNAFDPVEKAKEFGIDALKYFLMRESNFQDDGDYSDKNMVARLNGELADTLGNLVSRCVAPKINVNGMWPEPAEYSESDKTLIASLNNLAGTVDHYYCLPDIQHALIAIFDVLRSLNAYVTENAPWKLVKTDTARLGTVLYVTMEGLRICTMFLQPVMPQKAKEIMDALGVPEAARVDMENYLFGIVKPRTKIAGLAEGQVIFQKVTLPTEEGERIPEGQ

All values are in %.
The record does not define 0% and 100%; most values in the screen are far below 50% and negative numbers occur (in some assays of this library far below -100).
This is an unselected part of the compounds tested.

With Cc1nc(C)n(CC2CN(CCc3cccs3)CCO2)n1 (stereo not drawn) the screen gave A: 13.71%; B: 15.4%. Cc1noc(C)c1CN1CCc2ncnc(-c3ccoc3)c2CC1 read A: 4.651%. With O=C(NCc1nncn1-c1ccccc1)C1CC(=O)N(CC2CC2)C1 (stereo not drawn) the screen gave A: 11.11%; B: 7.77%. CCN(CC)C(=O)CCNC(=O)c1ccccc1N1CCOCC1 read A: 1.418%; B: -12.65%. Result for CCCC(C)CS(=O)(=O)NCc1cccnc1OC (stereo not drawn) was A: 11.45%; B: 17.08%.

Result for CN1CCCc2cc(CNC(=O)c3ccc(-n4cnnc4)cc3)ccc21 was A: 19.94%; B: -15.8%. With Cc1noc(OCCOc2cccc(C#N)c2)n1 the screen gave A: 15.81%; B: -11.69%. Result for Cn1ccnc1-c1noc(NCc2ccc(Br)cc2)n1 was A: 20.64%; B: -1.325%. CC(C)NC(=O)N1CCC[C@H]1C(=O)NCCCc1cnn(C)c1 gave A: -0.2584%; B: 6.869%. O=C(CCCN1C(=O)CCC1=O)NCC1(c2ccccc2)CCC1 gave A: 18.87%; B: -12.88%.

CC(Cn1cccn1)NC(=O)NCc1cccnc1OC(C)C (stereo not drawn) read A: 19.36%; B: -11.68%. [H][C@]12CC[C@]([H])(CN(C(=O)Cc3cccs3)C1)N(Cc1ccccn1)C2=O gave B: 13.37%. CC(C)C(=O)N1CCCc2c(cnn2-c2ccccc2)C1 read A: 13.02%; B: -11.37%. Result for O=C(Nc1ccccc1)N1C[C@H]2C[C@H](C(=O)N3CCOCC3)[C@@H](C1)O2 was A: 2.747%. For O=C(O)C(F)(F)F.O=C(O)C(F)(F)F.c1cncc(CN2CCOC(c3ncn4c(C5CC5)cccc34)C2)c1 (stereo not drawn) the result was B: -34.23%.

For COc1cccc(OCC(=O)NS(=O)(=O)c2cc(F)ccc2F)c1 the result was A: 4.891%; B: -0.6728%. CCn1nc(C)cc1C(=O)NCc1noc(C(C)(C)C)n1 gave A: 10.51%; B: 5.037%. With Cc1ccc(F)c2c1N(C(=O)Cc1c(C)nn(C)c1C)CCC2 the screen gave A: 14.25%; B: -6.194%. With Cc1cc(F)ccc1CCNC(=O)NCC(C)N1CCOCC1 (stereo not drawn) the screen gave A: 5.722%; B: -2.304%. For Cc1ccc(NC2CCCN(CCc3ccccc3)C2)nn1 (stereo not drawn) the result was A: 27.79%; B: -53.24%.

COc1ccc(-c2n[nH]cc2CN(C)Cc2nonc2C)c(F)c1 gave A: 10.99%; B: -15.81%. CC(C)n1nnnc1-c1ccc(NC(=O)C(C)(C)C#N)cc1F gave A: 16.25%; B: 10.22%. With Cc1noc(C)c1CN1CCCC(CN(C(=O)OC(C)(C)C)C(C)C)C1 (stereo not drawn) the screen gave A: 2.941%; B: -15.73%. CN(C)CCCNC(=O)c1ccccc1NC(=O)c1cc(Cl)ccc1Cl read A: -0.7853%; B: -4.983%. With CC(C)C(C)N1Cc2cccc(NCC(=O)N(C)C)c2C1 (stereo not drawn) the screen gave A: 12.33%; B: 1.926%.

Cc1noc(C)c1CN1CCc2ncnc(-c3ccc(F)cc3)c2CC1.O=C(O)C(F)(F)F gave B: 19.98%. CN1CCC(c2cccc(NCc3ccncc3)n2)CC1 read A: 14.29%; B: 2.54%. Result for [H][C@]12CN(C(=O)NC(C)C)CCN1C(=O)N(CCOC)C2 was B: -5.171%.

The first 3 entries again:

* Cc1nc(C)n(CC2CN(CCc3cccs3)CCO2)n1 (stereo not drawn) | A: 13.71%; B: 15.4%
* Cc1noc(C)c1CN1CCc2ncnc(-c3ccoc3)c2CC1 | A: 4.651%
* O=C(NCc1nncn1-c1ccccc1)C1CC(=O)N(CC2CC2)C1 (stereo not drawn) | A: 11.11%; B: 7.77%

The values are deposited in ChEMBL (CHEMBL3988442, “University of Dundee, Small-Polar-MMV Screening Library” (2021)).